Laboratory results published in PubChem BioAssay AID1671190 (National Center for Advancing Translational Sciences (NCATS), 2021).
The whole screen tested about 580,000 compounds, of which about 6,100 (1.1%) were called active. Inconclusive results, whose numbers are uncertain, are shown with a selection of clear calls. The call rests on the fitted dose curve; in most records, active means well fitted inhibition curve with a large enough effect; inconclusive means small, poorly fitted or top-dose-only effect, or another doubt; inactive means no such curve, though single readings can be large or run the other way. Potencies beside an inconclusive call are fits to weak or partial responses and may not hold up.

Sequences of proteins named here, by UniProt entry; tags and fusion partners are left off. A change or cut given only in a name is not applied to a line headed by its entry.
UniProt P18054: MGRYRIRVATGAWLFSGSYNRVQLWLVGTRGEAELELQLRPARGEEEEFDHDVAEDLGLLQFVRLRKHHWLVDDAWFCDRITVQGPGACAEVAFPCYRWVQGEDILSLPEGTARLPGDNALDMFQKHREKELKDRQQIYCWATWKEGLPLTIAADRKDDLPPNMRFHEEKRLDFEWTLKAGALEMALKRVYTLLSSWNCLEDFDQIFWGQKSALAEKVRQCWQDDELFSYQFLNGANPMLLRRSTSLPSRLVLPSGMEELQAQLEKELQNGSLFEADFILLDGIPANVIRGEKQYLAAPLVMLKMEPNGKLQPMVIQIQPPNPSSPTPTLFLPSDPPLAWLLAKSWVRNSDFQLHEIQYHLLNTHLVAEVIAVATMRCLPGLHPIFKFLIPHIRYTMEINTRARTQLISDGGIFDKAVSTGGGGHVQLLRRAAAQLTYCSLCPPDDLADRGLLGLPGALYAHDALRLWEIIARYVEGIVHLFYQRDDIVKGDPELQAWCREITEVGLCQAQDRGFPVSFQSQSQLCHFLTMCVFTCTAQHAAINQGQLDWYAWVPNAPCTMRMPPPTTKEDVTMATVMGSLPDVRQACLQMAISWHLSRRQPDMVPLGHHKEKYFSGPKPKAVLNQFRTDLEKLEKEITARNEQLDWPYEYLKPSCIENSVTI

target: Polyunsaturated fatty acid lipoxygenase ALOX12 (Homo sapiens) (UniProt P18054); experiment: Primary qHTS assay for inhibitors of human arachidonate 12S-lipoxygenase (ALOX12): Round 2; settings: purified 12hLO, xylenol orange hydroperoxide absorbance; series mostly up to 108 µM
Method in brief: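 Hydroperoxide product was detected by ferrous iron/xylenol orange as the 573 to 405 nm absorbance ratio. Arachidonic acid at 40 uM (final) was turned over for 30 min at room temperature by 150 nM human 12hLO, pH 7.0 Hepes buffer, after 15 min compound preincubation.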
Potency means the concentration at half of the fitted maximal effect.

Q: `N#C/C(=C/c1ccc(OC(F)F)cc1)C(=O)N(C1CCCCC1)C1CCCCC1` was tested. Which Potency did it give?
A: The Potency was “inactive”.

Q: With `CN(C(=O)c1ccccc1)C1c2c(ccc3ccccc23)OCC1CO` (stereo unspecified) as the molecule, how does the Potency read?
A: Its Potency is inconclusive: 112 µM [inhibitor, single point].

Q: `Cc1ccc(NC(=O)c2c(N3CCCC3=O)c3cc(C)ccc3n2C)c(C)c1` was tested. Which Potency did it give?
A: Its Potency is inconclusive: 0.708 µM [inhibitor, full curve, poor fit].

Q: With `ON=C1c2ccccc2-c2ccc(F)cc21` as the molecule, how does the Potency read?
A: The Potency was “inactive”.

Q: `O=C(COC(=O)c1n[nH]c2ccccc12)c1ccc(F)c(F)c1` was tested. Which Potency did it give?
A: Its Potency is inconclusive: 44.7 µM [inhibitor, partial curve, poor fit].

Q: Which Potency does the source give for `CN1c2cc(C(=O)Nc3ccc(S(N)(=O)=O)cc3)ccc2C(=O)N2CCCCC21` (stereo unspecified) here?
A: The Potency was inconclusive: 11.2 µM [inhibitor, full curve, poor fit].

Q: With `C[N+]1(CC(=O)OCCCc2ccccc2)CCOCC1` as the molecule, how does the Potency read?
A: Its Potency is inconclusive: 50.1 µM [inhibitor, partial curve, poor fit].

Q: Which Potency does the source give for `O=C(Nc1cccc2ccccc12)O[C@@H]1CO[C@H]2[C@@H]1OC[C@@H]2n1nnnc1Sc1ccccc1` here?
A: The Potency was inconclusive: 39.8 µM [inhibitor, partial curve].

Q: Which Potency does the source give for `O=[N+]([O-])c1ccc(Oc2cccc3cccnc23)c([N+](=O)[O-])c1` here?
A: The Potency was inconclusive: 56.2 µM [inhibitor, partial curve, poor fit].

Q: `CCc1ccccc1NC(=O)Cn1nnc(C(=O)OC)c1C(=O)OC` was tested. Which Potency did it give?
A: Its Potency is “inactive”.

Q: For `Cc1cc(C)n2nc(SCC(=O)c3cc(C)n(-c4cc(C)on4)c3C)nc2n1`, which Potency is on record?
A: The Potency was “inactive”.

Q: `COc1ccccc1-c1cc(C(F)(F)F)nc(S(=O)(=O)CCCC(=O)N2CCCCC2C)n1` (stereo unspecified) was tested. Which Potency did it give?
A: Its Potency is “inactive”.

Q: With `C=CCC[C@@H](Cc1ccc(F)cc1)C(=O)OC[C@H](Cc1c[nH]c2ccccc12)NC(=O)[C@H](CC=C)CC(=O)NCCO` as the molecule, how does the Potency read?
A: The Potency was “inactive”.

Q: For `COc1ccc(CCNc2nc(-c3ccc(OC)c(OC)c3)cs2)cc1OC`, which Potency is on record?
A: The Potency was inconclusive: 50.1 µM [inhibitor, partial curve, poor fit].

Q: With `Cc1ccc(NC(=O)C(C)c2ccc([N+](=O)[O-])cc2)cc1Cl` (stereo unspecified) as the molecule, how does the Potency read?
A: Its Potency is “inactive”.

Q: How did the Potency turn out when `COc1ccccc1CCNC(=O)c1ccc2c(c1)c(C)c(C)n2C` was run?
A: Its Potency is inconclusive: 100 µM [inhibitor, partial curve, poor fit].

Q: For `CCCCCOc1cccc(C2C(C(=O)c3cccs3)=C(O)C(=O)N2CCN2CCOCC2)c1` (stereo unspecified), which Potency is on record?
A: The Potency was inconclusive: 3.98 µM [inhibitor, full curve, poor fit].

Q: Which Potency does the source give for `CN(CCc1ccccn1)S(=O)(=O)c1ccc(F)cc1` here?
A: Its Potency is inconclusive: 4.47 µM [inhibitor, full curve, poor fit].

Q: `Oc1cccc(Oc2ncc(C(F)(F)F)cc2Cl)c1` was tested. Which Potency did it give?
A: The Potency was inconclusive: 100 µM [inhibitor, single point].

Q: For `COc1cc(NC(=S)NC(=O)c2ccc(C(C)(C)C)cc2)ccc1NC(=O)c1cccs1`, which Potency is on record?
A: Its Potency is active: 6.31 µM.

Q: Which Potency does the source give for `O=C1Nc2ccccc2C2(CCN(C(=O)OCc3ccccc3)C2)O1` (stereo unspecified) here?
A: Its Potency is inconclusive: 39.8 µM [inhibitor, partial curve, poor fit].

Q: For `Cc1ccc(C(C(=O)NC2CCCCC2)N(C(=O)Cc2c[nH]c3ccccc23)c2ccccc2C)o1` (stereo unspecified), which Potency is on record?
A: The Potency was inconclusive: 0.447 µM [inhibitor, full curve, poor fit].

Q: Which Potency does the source give for `O=c1cc(CN2CCN(Cc3ccccc3)CC2)c2ccc(O)c(O)c2o1` here?
A: The Potency was inconclusive: 39.8 µM [inhibitor, partial curve, poor fit].

Q: With `O=C(Cc1ccc(Cl)cc1)NC1CCN(c2cc(-c3ccc(F)cc3)[nH]n2)C1` (stereo unspecified) as the molecule, how does the Potency read?
A: Its Potency is inconclusive: 89.1 µM [inhibitor, partial curve].

Q: For `CC(C)(C)C(=O)Nc1cccc(CN2CCSCC2)c1`, which Potency is on record?
A: The Potency was “inactive”.

Q: With `Cc1nn2c(c1-c1cccnc1N1CCOCC1)N(CCCc1ccccc1)CCC2` as the molecule, how does the Potency read?
A: The Potency was inconclusive: 7.94 µM [inhibitor, full curve, poor fit].

Q: `COc1ccccc1Cn1ccnc1SCC(=O)Nc1ccc(C(C)=O)cc1` was tested. Which Potency did it give?
A: The Potency was “inactive”.

Q: Which Potency does the source give for `O=C(NC1=NCCS1)c1ccc(-c2ccc(Cl)cc2)o1` here?
A: Its Potency is inconclusive: 89.1 µM [inhibitor, partial curve, poor fit].

Q: Which Potency does the source give for `CCCC(=O)N1CCCC(c2cc(C(=O)Nc3ccccc3)no2)C1` (stereo unspecified) here?
A: Its Potency is “inactive”.

Q: How did the Potency turn out when `CCOC(=O)c1sc2ccccc2c1S(=O)(=O)Nc1ccc(N(C)C)cc1` was run?
A: Its Potency is inconclusive: 100 µM [inhibitor, single point].

Q: With `C=CS(=O)(=O)c1sc(Cl)c(N2CCOCC2)c1[N+](=O)[O-]` as the molecule, how does the Potency read?
A: Its Potency is inconclusive: 35.5 µM [inhibitor, partial curve, poor fit].

Q: How did the Potency turn out when `O=C(N/N=C/c1ccc(O)cc1)c1csc2ccccc12` was run?
A: Its Potency is “inactive”.

Q: For `O=C1CC2(CCN(Cc3cccc(OCc4ccccc4Cl)c3)CC2)CN1`, which Potency is on record?
A: The Potency was inconclusive: 25.1 µM [inhibitor, full curve, poor fit].

Q: How did the Potency turn out when `Cc1sc(NC2CC2)nc1-c1ccc(NS(C)(=O)=O)cc1` was run?
A: The Potency was inconclusive: 44.7 µM [inhibitor, partial curve, poor fit].

Q: `CC(C)C(=O)Nc1ccc(N(C)C)cc1` was tested. Which Potency did it give?
A: Its Potency is “inactive”.

Q: For `O=C1ON=C(c2ccccc2[N+](=O)[O-])/C1=C/c1cccc([N+](=O)[O-])c1O`, which Potency is on record?
A: The Potency was inconclusive: 22.4 µM [inhibitor, partial curve, poor fit].

Q: How did the Potency turn out when `O=C(CN1CCCCCCC1)Nc1ccc(Cl)cc1Cl` was run?
A: Its Potency is inconclusive: 70.8 µM [inhibitor, partial curve, poor fit].

Q: `Cc1[nH]c(=S)c(C#N)c(-c2ccccc2)c1C(=O)Nc1ccccc1` was tested. Which Potency did it give?
A: Its Potency is inconclusive: 22.4 µM [inhibitor, partial curve, poor fit].

Q: `CCn1c(-c2ccccc2F)nc2cc(C(=O)N3CCCC(CO)C3)cc(NC(C)=O)c21` (stereo unspecified) was tested. Which Potency did it give?
A: Its Potency is inconclusive: 112 µM [inhibitor, single point].

Q: With `Cc1ccc(S(=O)(=O)NCCCNS(=O)(=O)c2ccccc2Br)cc1` as the molecule, how does the Potency read?
A: The Potency was inconclusive: 70.8 µM [inhibitor, partial curve, poor fit].

Q: `COc1ccc(-c2nc3cnc(N(C)C)nc3n(C)c2=O)cc1` was tested. Which Potency did it give?
A: The Potency was inconclusive: 35.5 µM [inhibitor, single point].

Q: For `O=C1Nc2ccccc2CC12CCCCN2Cc1ccc(F)cc1` (stereo unspecified), which Potency is on record?
A: The Potency was inconclusive: 11.2 µM [inhibitor, full curve, poor fit].

Q: Which Potency does the source give for `Nc1ccc(C(=O)OCCc2ccccc2)cc1` here?
A: The Potency was “inactive”.

Q: With `COc1ccc(/C=C/c2nnc(NC(=O)CSc3ccc(C)cc3)s2)cc1` as the molecule, how does the Potency read?
A: Its Potency is “inactive”.

Q: `CCn1cc[n+](C)c1P(c1ccccc1)c1ccccc1` was tested. Which Potency did it give?
A: Its Potency is active: 39.8 µM.

Q: How did the Potency turn out when `CN1CCN(C(=O)CCS(=O)(=O)c2ccccc2)CC(O)C1` (stereo unspecified) was run?
A: The Potency was “inactive”.

Q: With `O=c1cc(CN2CCN(Cc3ccccc3)CC2)c2cc(Cl)c(O)cc2o1` as the molecule, how does the Potency read?
A: Its Potency is inconclusive: 31.6 µM [inhibitor, partial curve, poor fit].

Q: For `COC(=O)C1=C(C)OC(N)=C(C#N)C1c1ccc(C)cc1C` (stereo unspecified), which Potency is on record?
A: Its Potency is inconclusive: 31.6 µM [inhibitor, partial curve].

Q: Which Potency does the source give for `Cc1ccccc1OCCCC(=O)Nc1ccc2c(c1)OCO2` here?
A: The Potency was inconclusive: 50.1 µM [inhibitor, partial curve, poor fit].

Q: With `COCC(=O)N1CCC2(CCCN(c3ccc(-c4ccccc4)cc3)C2)CC1` as the molecule, how does the Potency read?
A: Its Potency is inconclusive: 31.6 µM [inhibitor, single point].

Q: Which Potency does the source give for `COc1ccc(O)c(-c2[nH]ncc2C(=O)c2ccccc2)c1` here?
A: The Potency was “inactive”.

Q: With `Cc1ccccc1Cn1cc(NC(=O)c2cc(-c3ccco3)on2)cn1` as the molecule, how does the Potency read?
A: The Potency was inconclusive: 56.2 µM [inhibitor, partial curve, poor fit].

Q: With `COc1cc(NC(=O)COC(=O)/C=C/c2ccc(OC)c(OC)c2)cc(OC)c1` as the molecule, how does the Potency read?
A: The Potency was inconclusive: 112 µM [inhibitor, single point].

Q: `Cc1cc(C)cc(OCC(=O)NCC(c2ccc(Cl)cc2)N2CCCCC2)c1` (stereo unspecified) was tested. Which Potency did it give?
A: The Potency was inconclusive: 79.4 µM [inhibitor, partial curve, poor fit].

Q: How did the Potency turn out when `COc1ccc(S(=O)(=O)Nc2nc3ccccc3nc2NCc2ccccc2OC)cc1` was run?
A: Its Potency is “inactive”.

Q: How did the Potency turn out when `COc1ccc2sc(-c3ccccc3OC)c(C#CCCO)c2c1` was run?
A: Its Potency is inconclusive: 31.6 µM [inhibitor, partial curve].

Q: Which Potency does the source give for `C[C@H](NC(=O)c1ccccc1Cl)C(=O)OCc1cn2cc(Cl)ccc2n1` here?
A: Its Potency is inconclusive: 6.31 µM [inhibitor, full curve, poor fit].

Q: With `Cc1ccc2c(ccc[n+]2CC(=O)c2ccccc2)c1` as the molecule, how does the Potency read?
A: The Potency was “inactive”.

Q: How did the Potency turn out when `Cc1ccccc1NC(=S)NCc1ccc2[nH]c3c(c2c1)CCCC3` was run?
A: The Potency was inconclusive: 44.7 µM [inhibitor, partial curve, poor fit].

Q: How did the Potency turn out when `O=C(c1ccc(C(F)(F)F)cc1)N1CCc2nc(C3CC3)nc(-c3ccc(Cl)cc3)c2CC1` was run?
A: The Potency was inconclusive: 11.2 µM [inhibitor, full curve].

Q: For `OCCNc1nc(N2CCN(c3ccccc3)CC2)nc2ccccc12`, which Potency is on record?
A: The Potency was inconclusive: 5.01 µM [inhibitor, full curve, poor fit].

Q: `Cc1cc(C)nc(/N=C2\NC(=O)CN2c2cc(Cl)cc(Cl)c2)n1` was tested. Which Potency did it give?
A: Its Potency is “inactive”.

Q: How did the Potency turn out when `Cc1cc(NC(=O)Nc2cccc3ccccc23)no1` was run?
A: The Potency was inconclusive: 39.8 µM [inhibitor, single point].

Q: How did the Potency turn out when `O=C(c1cccc(Cl)c1)N1CCN(C2CCCCCC2)CC1` was run?
A: The Potency was inconclusive: 0.631 µM [inhibitor, partial curve, poor fit].

Q: With `Cc1cc(NC(=O)CCC(=O)N(CC(=O)NCC2CCCO2)Cc2ccc(F)cc2)no1` (stereo unspecified) as the molecule, how does the Potency read?
A: The Potency was inconclusive: 178 µM [inhibitor, partial curve, poor fit].

Q: Which Potency does the source give for `CC1(C)CC2CC(C)(CN2C(=O)COC(=O)c2ccc(NC(=O)CC#N)cc2)C1` (stereo unspecified) here?
A: Its Potency is “inactive”.
